# Experimental data as given in the supplement of paper PMC8728848.
# The other results are listed elsewhere or left out.
# B1: FimA (Actinomyces oris) (protein)
# chain: MHHHHHHSSGVDLGTENLYFQSNAETPNYGNIKTDATGSLVIHKHLTGGGKDIGTPTGTAQNADDKGPAVEGVVFTAYPITDINLKDPAGWDTISNLSRTGVPDSACANPAAPTLGAHQFGTPKVSPATTKEGLATITEMPVQAYLVCETTTPGDIVQKAKPFVVTIPHPNTAAGADGQWIYDVNVYPKNEAIDVDKTIQAQKLNGYGVGSLIKFPVESTAPTLDAKSFYKYFQLKDTLDERLSEVTATDVSLEGTPLQPTDYKVETKQQTVTVTFTAEGLKKIKAAPGKKVSAVFQGKVTKAGNGAITNRAQVISDTLYAEQPPTPETPPTDPENPPTSDEVISRWGDLSIKKVDTHQQGQTKAGLQGAQFQLYKAKNAYANTCSNEKEGAPIAINGQTTLTTDAQGAIDIKGLFISDSIDGADRDNQVNAMERCYVLVETKAPAGYVLPAGNGAATPVKVKAGEETTDNVTVENTKQSVPGLPLTG
# How the values were obtained:
# Experiment in all cases: glycan array binding signal (z-score within array); higher = stronger binding
# Conditions in all cases: glycan notation: IUPAC condensed, linker removed
# [1] = molecular target: Fuc(a1-2)Gal(b1-4)GlcNAc(b1-3)Gal(b1-4)GlcNAc(b1-3)Gal(b1-4)GlcNAc
# Procedure, shortened: (§1)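 The binding signal is a Z-score computed within each array. Data were drawn from 3228 arrays in the Consortium for Functional Glycomics database, restricted to those with a known protein sequence. Scores were averaged over arrays of the same protein sequence at different concentrations or buffers, and over linkers, and negative values can be taken as non-binding.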
# [2] = molecular target: Fuc(a1-2)Gal(b1-4)GlcNAc(b1-3)GalNAc
# Procedure, shortened: as §1
# [3] = molecular target: Fuc(a1-2)Gal(b1-4)GlcNAc(b1-3)[Fuc(a1-2)Gal(b1-4)GlcNAc(b1-6)]GalNAc
# Procedure, shortened: as §1
# [4] = molecular target: Fuc(a1-2)Gal(b1-4)GlcNAc(b1-3)[Fuc(a1-3)[Gal(b1-4)]GlcNAc(b1-6)]Gal(b1-4)Glc
# Procedure, shortened: as §1
# [5] = molecular target: Fuc(a1-2)Gal(b1-4)GlcNAc(b1-6)GalNAc
# Procedure, shortened: as §1
# [6] = molecular target: Fuc(a1-2)Gal(b1-4)GlcNAc6S
# Procedure, shortened: as §1
# [7] = molecular target: Fuc(a1-2)Gal(b1-4)[Fuc(a1-3)]GlcNAc
# Procedure, shortened: as §1
# [8] = molecular target: Fuc(a1-2)Gal(b1-4)[Fuc(a1-3)]GlcNAc(b1-2)Man(a1-3)[Fuc(a1-2)Gal(b1-4)[Fuc(a1-3)]GlcNAc(b1-2)Man(a1-6)]Man(b1-4)GlcNAc(b1-4)[Fuc(a1-6)]GlcNAc
# Procedure, shortened: as §1
# [9] = molecular target: Fuc(a1-2)Gal(b1-4)[Fuc(a1-3)]GlcNAc(b1-2)[Fuc(a1-2)Gal(b1-4)[Fuc(a1-3)]GlcNAc(b1-4)]Man(a1-3)[Fuc(a1-2)Gal(b1-4)[Fuc(a1-3)]GlcNAc(b1-2)Man(a1-6)]Man(b1-4)GlcNAc(b1-4)GlcNAc
# Procedure, shortened: as §1
# [10] = molecular target: Fuc(a1-2)Gal(b1-4)[Fuc(a1-3)]GlcNAc(b1-3)Gal(b1-4)[Fuc(a1-3)]GlcNAc
# Procedure, shortened: as §1
# [11] = molecular target: Fuc(a1-2)Gal(b1-4)[Fuc(a1-3)]GlcNAc(b1-3)Gal(b1-4)[Fuc(a1-3)]GlcNAc(b1-3)Gal(b1-4)[Fuc(a1-3)]GlcNAc
# Procedure, shortened: as §1
# [12] = molecular target: Fuc(a1-2)Gal(b1-4)[Fuc(a1-3)]GlcNAc(b1-3)GalNAc
# Procedure, shortened: as §1
# [13] = molecular target: Fuc(a1-2)Gal(b1-4)[Fuc(a1-3)]GlcNAc(b1-3)[Neu5Ac(a2-6)Gal(b1-4)GlcNAc(b1-6)]Gal(b1-4)Glc
# Procedure, shortened: as §1
# [14] = molecular target: Fuc(a1-2)Gal3S(b1-4)GlcNAc
# Procedure, shortened: as §1
# [15] = molecular target: Fuc(a1-2)Gal6S(b1-3)GlcNAc
# Procedure, shortened: as §1
# [16] = molecular target: Fuc(a1-2)Gal6S(b1-3)GlcNAc6S
# Procedure, shortened: as §1
# Fuc(a1-2)Gal6S(b1-4)Glc = molecular target: Fuc(a1-2)Gal6S(b1-4)Glc
# Procedure, shortened: as §1
# [17] = molecular target: Fuc(a1-2)Gal6S(b1-4)Glc6S
# Procedure, shortened: as §1
# Fuc(a1-2)[Gal(a1-3)]Gal = molecular target: Fuc(a1-2)[Gal(a1-3)]Gal
# Procedure, shortened: as §1
# [18] = molecular target: Fuc(a1-2)[Gal(a1-3)]Gal(b1-3)GalNAc
# Procedure, shortened: as §1
# [19] = molecular target: Fuc(a1-2)[Gal(a1-3)]Gal(b1-3)GalNAc(b1-3)Gal(a1-4)Gal(b1-4)Glc
# Procedure, shortened: as §1
# [20] = molecular target: Fuc(a1-2)[Gal(a1-3)]Gal(b1-3)GlcNAc
# Procedure, shortened: as §1
# [21] = molecular target: Fuc(a1-2)[Gal(a1-3)]Gal(b1-3)GlcNAc(b1-2)Man(a1-3)[Fuc(a1-2)[Gal(a1-3)]Gal(b1-3)GlcNAc(b1-2)Man(a1-6)]Man(b1-4)GlcNAc(b1-4)GlcNAc
# Procedure, shortened: as §1
# [22] = molecular target: Fuc(a1-2)[Gal(a1-3)]Gal(b1-3)GlcNAc(b1-2)Man(a1-3)[Fuc(a1-2)[Gal(a1-3)]Gal(b1-3)GlcNAc(b1-2)Man(a1-6)]Man(b1-4)GlcNAc(b1-4)[Fuc(a1-6)]GlcNAc
# Procedure, shortened: as §1
# [23] = molecular target: Fuc(a1-2)[Gal(a1-3)]Gal(b1-3)GlcNAc(b1-3)GalNAc
# Procedure, shortened: as §1
# [24] = molecular target: Fuc(a1-2)[Gal(a1-3)]Gal(b1-3)GlcNAc(b1-6)GalNAc
# Procedure, shortened: as §1
# [25] = molecular target: Fuc(a1-2)[Gal(a1-3)]Gal(b1-4)Glc
# Procedure, shortened: as §1
# [26] = molecular target: Fuc(a1-2)[Gal(a1-3)]Gal(b1-4)GlcNAc
# Procedure, shortened: as §1
# [27] = molecular target: Fuc(a1-2)[Gal(a1-3)]Gal(b1-4)GlcNAc(b1-2)Man
# Procedure, shortened: as §1
# [28] = molecular target: Fuc(a1-2)[Gal(a1-3)]Gal(b1-4)GlcNAc(b1-2)Man(a1-3)[Fuc(a1-2)[Gal(a1-3)]Gal(b1-4)GlcNAc(b1-2)Man(a1-6)]Man(b1-4)GlcNAc(b1-4)GlcNAc
# Procedure, shortened: as §1
binder,measurement,setting,value
B1,glycan array binding signal (z-score),[1],-0.835
same,glycan array binding signal (z-score),[2],-0.785
same,glycan array binding signal (z-score),[3],-0.288
same,glycan array binding signal (z-score),[4],-0.576
same,glycan array binding signal (z-score),[5],-0.068
same,glycan array binding signal (z-score),[6],-0.627
same,glycan array binding signal (z-score),[7],-0.015
same,glycan array binding signal (z-score),[8],0.32
same,glycan array binding signal (z-score),[9],-0.358
same,glycan array binding signal (z-score),[10],0.481
same,glycan array binding signal (z-score),[11],-0.317
same,glycan array binding signal (z-score),[12],1.3
same,glycan array binding signal (z-score),[13],-0.445
same,glycan array binding signal (z-score),[14],-0.091
same,glycan array binding signal (z-score),[15],0.258
same,glycan array binding signal (z-score),[16],-0.064
same,glycan array binding signal (z-score),Fuc(a1-2)Gal6S(b1-4)Glc,0.428
same,glycan array binding signal (z-score),[17],-0.826
same,glycan array binding signal (z-score),Fuc(a1-2)[Gal(a1-3)]Gal,0.708
same,glycan array binding signal (z-score),[18],0.964
same,glycan array binding signal (z-score),[19],0.236
same,glycan array binding signal (z-score),[20],0.004
same,glycan array binding signal (z-score),[21],-1
same,glycan array binding signal (z-score),[22],-0.466
same,glycan array binding signal (z-score),[23],-0.525
same,glycan array binding signal (z-score),[24],-0.362
same,glycan array binding signal (z-score),[25],-0.096
same,glycan array binding signal (z-score),[26],0.372
same,glycan array binding signal (z-score),[27],0.046
same,glycan array binding signal (z-score),[28],5.11

# As a short view, some entries already given:
binder,measurement,setting,value
B1,glycan array binding signal (z-score),[17],-0.826
same,glycan array binding signal (z-score),Fuc(a1-2)[Gal(a1-3)]Gal,0.708
